Source: the supplement of paper PMC10331698
± gives the standard deviation of the averaged measurements. Most entries show no effect beyond the scatter of the controls.

Tests used:
Experiment in all cases: level (log10 ratio to DMSO vehicle control); higher = higher biomarker level / cell amount than vehicle control
[1] = compound: C=C(C)C(=O)OCCC(F)(F)C(F)(F)C(F)(F)C(F)(F)C(F)(F)C(F)(F)C(F)(F)C(F)(F)F [8:2 Fluorotelomer methacrylate]; conditions: in DMSO
Procedure: (§1)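 BioMAP Diversity Plus panel of 12 human primary cell co-culture systems (3C, 4H, LPS, SAg, BT, BF4T, BE3C, CASM3C, HDF3CGF, KF3CT, MyoF, Mphg). Compounds were added 1 h before stimulation and left for 24 h (MyoF 48 h; BT 72 h for soluble read-outs or 6 d for IgG). Biomarkers were read by ELISA, cytotoxicity by SRB, PBMC viability and proliferation by Alamar Blue. Each well value was divided by the mean of 8 DMSO control wells on the same plate and log10 transformed; duplicate blinded samples were tested at 4 concentrations.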

[2] = compound: O=C(O)CCC(F)(F)C(F)(F)C(F)(F)C(F)(F)C(F)(F)F [2H,2H,3H,3H-Perfluorooctanoic acid]; conditions: 2200 nM; in DMSO
Procedure: as §1

[3] = compound: O=S(=O)(O)C(F)(F)C(F)(F)OC(F)(F)C(F)(F)F [Perfluoro(2-ethoxyethane)sulfonic acid]; conditions: 2200 nM; in DMSO
Procedure: as §1

[4] = compound: O=C(O)C(F)(F)C(F)(F)C(F)(F)C(F)(F)C(F)(F)C(F)(F)C(F)(F)C(F)(F)Cl [9-Chloro-perfluorononanoic acid]; conditions: in DMSO
Procedure: as §1

[5] = compound: OCCC(F)(F)C(F)(F)C(F)(F)C(F)(F)F [4:2 Fluorotelomer alcohol]; conditions: 2200 nM; in DMSO
Procedure: as §1

[6] = compound: OC(C(F)(F)F)(C(F)(F)F)C(O)(C(F)(F)F)C(F)(F)F [Perfluoropinacol]; conditions: in DMSO
Procedure: as §1

[7] = compound: C=C(C)C(=O)OCCC(F)(F)C(F)(F)C(F)(F)C(F)(F)C(F)(C(F)(F)F)C(F)(F)F [(Perfluoro-5-methylhexyl)ethyl 2-methylprop-2-enoate]; conditions: in DMSO
Procedure: as §1

[8] = compound: NC(=O)C(F)(F)C(F)(F)C(F)(F)C(F)(F)F [Nonafluoropentanamide]; conditions: 2200 nM; in DMSO
Procedure: as §1

[9] = compound: NC(=O)C(F)(F)C(F)(F)C(F)(F)C(F)(F)C(N)=O [Octafluoroadipamide]; conditions: 2200 nM; in DMSO
Procedure: as §1

[10] = compound: O=S(=O)(O)CCC(F)(F)C(F)(F)C(F)(F)C(F)(F)C(F)(F)C(F)(F)F [6:2 Fluorotelomer sulfonic acid]; conditions: in DMSO
Procedure: as §1

[11] = compound: FC(F)(F)C(F)(F)C(F)(F)C(F)(F)C(F)(F)CCI [1-Iodo-1H,1H,2H,2H-perfluoroheptane]; conditions: 2200 nM; in DMSO
Procedure: as §1

[12] = compound: O=C(O)C(F)(F)C(F)(F)C(=O)O [Tetrafluorosuccinic acid]; conditions: 2200 nM; in DMSO
Procedure: as §1

[13] = compound: NS(=O)(=O)C(F)(F)C(F)(F)C(F)(F)C(F)(F)C(F)(F)C(F)(F)F [Perfluorohexanesulfonamide]; conditions: 2200 nM; in DMSO
Procedure: as §1

[14] = compound: COC(=O)CCC(F)(F)C(F)(F)C(F)(F)C(F)(F)F [Methyl 2H,2H,3H,3H-perfluoroheptanoate]; conditions: 2200 nM; in DMSO
Procedure: as §1

Test System	level (log10) ([1]; 740 nM)	level (log10) ([1]; 2200 nM)	level (log10) [2]	level (log10) [3]	level (log10) ([4]; 2200 nM)	level (log10) ([4]; 6700 nM)	level (log10) ([4]; 20000 nM)	level (log10) [5]	level (log10) ([6]; 2200 nM)	level (log10) ([6]; 6700 nM)	level (log10) ([6]; 20000 nM)	level (log10) ([7]; 740 nM)	level (log10) ([7]; 2200 nM)	level (log10) ([7]; 6700 nM)	level (log10) ([7]; 20000 nM)	level (log10) [8]	level (log10) [9]	level (log10) ([10]; 2200 nM)	level (log10) ([10]; 6700 nM)	level (log10) ([10]; 20000 nM)	level (log10) ([10]; 60000 nM)	level (log10) [11]	level (log10) [12]	level (log10) [13]	level (log10) [14]
BE3C:tPA	0.0095 ± 0.09	-0.0005 ± 0.088	-0.0145 ± 0.022	-0.0015 ± 0.0035	0.0265 ± 0.04	0.0195 ± 0.023	-0.0985 ± 0.023	-0.008	0.036 ± 0.0014	-0.0455 ± 0.0078	-0.224 ± 0.012	-0.016 ± 0.0028	-0.004 ± 0.027	-0.0245 ± 0.00071	-0.0325 ± 0.021	0.016 ± 0.016	-0.0085 ± 0.036	0.0035 ± 0.047	-0.0025 ± 0.016	0.029 ± 0.02	0.05 ± 0.025	-0.036 ± 0.051	0.0175 ± 0.0064	-0.02 ± 0.03	-0.002 ± 0.0057
LPS:CD142/Tissue Factor	0.03 ± 0.048	0.0135 ± 0.061	0.078 ± 0.0099	0.083 ± 0.057	0.0135 ± 0.032	0.0165 ± 0.059	0.0375 ± 0.016	-0.0175 ± 0.0078	-0.0385 ± 0.0092	-0.0795 ± 0.0035	-0.038 ± 0.02	0.142 ± 0.039	0.0055 ± 0.0092	0.032 ± 0.014	0.006 ± 0.014	0.105 ± 0.037	-0.0295 ± 0.083	0.0385 ± 0.033	-0.0015 ± 0.064	0.02 ± 0.0085	0.0275 ± 0.026	0.009 ± 0.0042	0.039 ± 0.042	-0.038 ± 0.0071	0.005 ± 0.044
BF4T:CCL2/MCP-1	0.0145 ± 0.03	-0.007 ± 0.023	0.057 ± 0.025	0.0455 ± 0.0078	-0.105 ± 0.076	-0.034 ± 0.028	-0.0785 ± 0.044	-0.0305 ± 0.079	-0.0005 ± 0.084	0.0435 ± 0.032	-0.0175 ± 0.015	0.0395 ± 0.012	-0.0015 ± 0.00071	0.012 ± 0.011	0.0275 ± 0.005	0.0245 ± 0.025	-0.003 ± 0.047	0.041 ± 0.044	0.0035 ± 0.0064	-0.024 ± 0.028	-0.0335 ± 0.069	0.007 ± 0.038	0.0115 ± 0.019	-0.034 ± 0.0014	0.0185 ± 0.042
KF3CT:uPA	-0.0065 ± 0.013	-0.0065 ± 0.0092	-0.005 ± 0.0071	0.003 ± 0.017	0.0145 ± 0.0064	0.0095 ± 0.0078	0.01	-0.021 ± 0.0085	-0.0005 ± 0.046	0.0065 ± 0.035	0.019 ± 0.021	0.004 ± 0.014	0.006 ± 0.0085	0.007 ± 0.0057	0.007 ± 0.0028	0.0115 ± 0.00071	-0.01 ± 0.0057	-0.002 ± 0.0085	0.0015 ± 0.005	-0.0115 ± 0.019	0.008 ± 0.03	-0.0065 ± 0.028	-0.015 ± 0.014	-0.02 ± 0.038	0 ± 0.0028
BE3C:EGFR	0.0075 ± 0.016	-0.002 ± 0.014	-0.001 ± 0.0042	0.009	-0.0035 ± 0.011	-0.004 ± 0.0014	-0.101 ± 0.015	0.02 ± 0.017	-0.0085 ± 0.005	0.0065 ± 0.00071	-0.027 ± 0.0085	0.028 ± 0.02	-0.0045 ± 0.013	-0.0065 ± 0.011	0.009 ± 0.014	0.009 ± 0.035	-0.0065 ± 0.0021	-0.0115 ± 0.015	-0.0075 ± 0.00071	-0.027 ± 0.0085	-0.0095 ± 0.0064	0.0105 ± 0.0035	0.002 ± 0.027	0.0155 ± 0.016	-0.0385 ± 0.0035
3C:CD142/Tissue Factor	0.049 ± 0.023	0.041 ± 0.024	0.0105 ± 0.052	0.0255 ± 0.039	0.001 ± 0.0014	-0.008 ± 0.057	0.025 ± 0.0057	0.0105 ± 0.032	-0.0365 ± 0.018	-0.0805 ± 0.026	-0.158 ± 0.0035	0.0145 ± 0.011	0.018 ± 0.027	0.0205 ± 0.015	-0.0295 ± 0.046	-0.0035 ± 0.035	-0.0035 ± 0.1	0.0095 ± 0.033	-0.0065 ± 0.029	0.006 ± 0.021	0.0155 ± 0.064	0.0065 ± 0.011	-0.014 ± 0.058	0.0045 ± 0.011	-0.0515 ± 0.0078
KF3CT:SRB	0.0025 ± 0.0035	0.0005 ± 0.0035	-0.0035 ± 0.005	0.0025 ± 0.0078	-0.0005 ± 0.005	-0.0135 ± 0.0035	-0.0145 ± 0.012	0.0025 ± 0.00071	0.0105 ± 0.011	-0.004 ± 0.0042	-0.014 ± 0.02	0.005 ± 0.0057	0.002 ± 0.0014	-0.006 ± 0.0014	0.003 ± 0.016	0.0035 ± 0.0092	0.0115 ± 0.026	-0.0015 ± 0.00071	-0.004	0.0005 ± 0.0035	0.006 ± 0.016	0.0065 ± 0.011	-0.001 ± 0.016	0.0095 ± 0.016	-0.0135 ± 0.005
BF4T:CCL26/Eotaxin-3	0.017 ± 0.081	0.013 ± 0.033	0.026 ± 0.086	0.069 ± 0.0071	-0.134 ± 0.058	-0.144 ± 0.016	-0.27 ± 0.014	0.0115 ± 0.07	-0.0035 ± 0.047	-0.108 ± 0.0042	-0.217 ± 0.0057	-0.041 ± 0.044	-0.0175 ± 0.016	-0.0125 ± 0.0064	0.016 ± 0.044	-0.02 ± 0.014	0.0285 ± 0.071	0.035 ± 0.062	0.001 ± 0.018	-0.0535 ± 0.011	-0.08 ± 0.078	-0.008 ± 0.02	0.002 ± 0.072	0.007 ± 0.028	-0.024 ± 0.057
BT:PBMC Cytotoxicity	0.009 ± 0.027	-0.0065 ± 0.00071	0.034 ± 0.021	-0.0005 ± 0.029	0.007 ± 0.024	0.015 ± 0.028	0.0355 ± 0.015	-0.012 ± 0.0071	-0.005 ± 0.0028	0.011 ± 0.017	-0.0095 ± 0.023	0.041	0.023 ± 0.014	0.004 ± 0.0057	0.007 ± 0.021	0.016 ± 0.018	0.009 ± 0.0042	0.0365 ± 0.03	0.007	0.0235 ± 0.0064	0.045 ± 0.0014	0.0065 ± 0.061	-0.0245 ± 0.019	0.0415 ± 0.07	0.0345 ± 0.011
BF4T:CD54/ICAM-1	0.0075 ± 0.023	-0.0085 ± 0.012	-0.004 ± 0.025	0.013 ± 0.017	-0.024 ± 0.014	-0.0085 ± 0.0021	-0.0355 ± 0.0064	0.0005 ± 0.0092	0.0045 ± 0.005	-0.0015 ± 0.011	-0.018 ± 0.0028	-0.005 ± 0.0014	-0.013 ± 0.0057	-0.0065 ± 0.015	-0.017 ± 0.0099	0.0045 ± 0.005	-0.004 ± 0.042	0.0065 ± 0.023	-0.0115 ± 0.00071	-0.015 ± 0.021	-0.0095 ± 0.018	-0.0045 ± 0.0021	-0.0155 ± 0.011	-0.0045 ± 0.011	-0.0255 ± 0.018
